Laboratory results taken from the supplement of paper PMC7024190.
Structures can show the parent of a compound that is named as a salt. The list shows a part of the results. This data set is noisy: repeats of one test often differ as much as different tests do.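 A first-round screen of about ten thousand compounds sought those raising reporter output, using human embryonic kidney cells briefly transfected with a plasmid carrying a Renilla luciferase gene driven by the HSV-TK promoter.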

Test system: HEK 293FT
Experiment: log relative Renilla luciferase luminescence (reporter expression vs reference, reference not stated) (log (base not stated)); higher = higher recombinant reporter expression
Conditions: 10 µM; time after transfection 48 h

Question: Which log does the source give for `c1ccc2c(c1)Sc1ccccc1N2CC1CN2CCC1CC2` (stereo not drawn) [Mequitazine] here?
Answer: 0.0725

Question: How did the log turn out when `C[C@]12CC[C@H]3[C@@H](CCC4=CC(=O)CC[C@@H]43)[C@@H]1CCC2=O` [Norandrostenedione-19] was run?
Answer: 0.0539

Question: For `OC(c1ccccc1)(c1ccccc1)C1CCNCC1` [Azacyclonol], which log is on record?
Answer: -0.00227

Question: How did the log turn out when `O=C1C[N+]([O-])=C(c2ccccc2)c2cc(Cl)ccc2N1` [Demoxepam] was run?
Answer: 0.0966

Question: For `CC(=O)O[C@H]1C[C@H](O[C@H]2[C@@H](O)C[C@H](O[C@H]3[C@@H](O)C[C@H](O[C@H]4CC[C@@]5(C)[C@H](CC[C@@H]6[C@@H]5C[C@@H](O)[C@]5(C)[C@@H](C7=CC(=O)OC7)CC[C@]65O)C4)O[C@@H]3C)O[C@@H]2C)O[C@H](C)[C@H]1O` [Alpha-Acetyldigoxin], which log is on record?
Answer: -1.24

Question: `O=C1CN=C(c2ccccc2)c2cc(Cl)ccc2N1` [Nordazepam] was tested. Which log did it give?
Answer: 0.0735

Question: Which log does the source give for `c1coc(-c2nc3ccccc3[nH]2)c1` [Fuberidazole] here?
Answer: 0.0597

Question: `CN1c2ccccc2C(NCCCCCCC(=O)O)c2ccc(Cl)cc2S1(=O)=O` (stereo not drawn) [Tianeptine sodium] was tested. Which log did it give?
Answer: -0.0668

Question: With `Cn1c(=O)c2ncnnc2n(C)c1=O` [Fervenulin] as the compound, how does the log read?
Answer: -0.398

Question: For `O=P1(NCCCl)OCCCN1CCCl` (stereo not drawn) [Ifosfamide], which log is on record?
Answer: -0.0257

Question: How did the log turn out when `O=C1CNC(c2ccccc2Cl)c2cc(Br)ccc2N1` (stereo not drawn) [Dihydrofenazepam] was run?
Answer: -0.027

Question: How did the log turn out when `CC(C)OC(=O)C(O)(c1ccc(Br)cc1)c1ccc(Br)cc1` [Bromopropylate] was run?
Answer: -0.0682

Question: With `Cc1ccc(-c2nc3ccc(C)cn3c2CC(=O)N(C)C)cc1` [Zolpidem Tartrate] as the compound, how does the log read?
Answer: -1.11

Question: How did the log turn out when `CCCCCCCCCC(=O)O[C@H]1CC[C@H]2[C@@H]3CCC4=CC(=O)CC[C@]4(C)[C@H]3CC[C@]12C` [Testosterone decanoate] was run?
Answer: 0.0416

Question: `C[C@]12CC[C@H]3[C@@H](CCC4=C[C@@H](O[C@@H]5OC[C@@H](O[C@@H]6O[C@H](CO)[C@@H](O)[C@H](O)[C@H]6O)[C@H](O)[C@H]5O)CC[C@@]43C=O)[C@@]1(O)CC[C@@H]2C1=CC(=O)OC1` [Hyrcanoside] was tested. Which log did it give?
Answer: -1.18

Question: `CCOP(=O)(OCC)Oc1ccc([N+](=O)[O-])cc1` [Paraoxon] was tested. Which log did it give?
Answer: 0.0256

Question: With `COc1ccc(CN2CCNCC2)c(OC)c1OC` [Trimetazidine Dihydrochloride] as the compound, how does the log read?
Answer: -0.301

Question: `CN(C)C(=O)Oc1cccc([N+](C)(C)C)c1` [Neostigmine Mesilate] was tested. Which log did it give?
Answer: 0.223

Question: How did the log turn out when `CN1CCc2cc3c(cc2[C@@H]1[C@@H]1OC(=O)c2c1ccc1c2OCO1)OCO3` [Adlumidine] was run?
Answer: -0.236

Question: For `O=C1CN=C(c2ccccc2Cl)c2cc(Br)ccc2N1` [Fenazepam], which log is on record?
Answer: 0.104

Question: How did the log turn out when `CC(C)(C)C(=O)C(Oc1ccc(Cl)cc1)n1cncn1` (stereo not drawn) [Triadimefon] was run?
Answer: -0.114

Question: How did the log turn out when `C/C=C/c1cc(OC)c(OC)cc1OC` [Alpha-asarone] was run?
Answer: 0.0607

Question: With `O=C1Nc2ccc(Br)cc2C(c2ccccc2Cl)=NC1O` (stereo not drawn) [3-Hydroxyfenazepam] as the compound, how does the log read?
Answer: 0.0217

Question: `COc1cc2c(cc1OC)-c1c(OC)c(OC)cc3c1[C@H](C2)N(C)CC3` [Glaucine] was tested. Which log did it give?
Answer: -0.00771

Question: For `CC(=O)O[C@H]1CC[C@H]2[C@@H]3CCC4=CC(=O)CC[C@]4(C)[C@H]3CC[C@]12C` [Testosterone acetate], which log is on record?
Answer: -0.00108

Question: Which log does the source give for `CC1=C(C(=O)Nc2ccccc2)SCCO1` [Carboxin] here?
Answer: 0.0211

Question: `O=C(O)CCC(=O)OC1N=C(c2ccccc2Cl)c2cc(Br)ccc2NC1=O` (stereo not drawn) [Cinazepam] was tested. Which log did it give?
Answer: 0.0576

Question: For `CCN(CC)CCOC(=O)C(C)(c1ccccc1)c1ccccc1` [Aprofene], which log is on record?
Answer: 0.0239

Question: `CCC(N)Cc1c[nH]c2ccccc12` (stereo not drawn) [Etryptamine] was tested. Which log did it give?
Answer: -0.00227

Question: With `O=C1Nc2ccc(Cl)cc2C(c2ccccc2)=NC1O` (stereo not drawn) [Oxazepam] as the compound, how does the log read?
Answer: 0.135

Question: Which log does the source give for `COc1ccc(-c2cc(=O)c3c(OC)c(OC)c(OC)cc3o2)cc1` [Tetramethylscutellarein] here?
Answer: -0.00347

Question: `COc1ccc2c(c1)[C@]13CCCC[C@@H]1[C@H](C2)N(C)CC3` [Dextromethorphan Hydrobromide] was tested. Which log did it give?
Answer: -0.88

Question: With `NC(CP(=O)(O)O)C(=O)O` (stereo not drawn) [Aminophosphonopropionic acid] as the compound, how does the log read?
Answer: -0.0949

Question: `C[C@H]1CCC[C@H](O)CCCCCc2cc(O)cc(O)c2C(=O)O1` [Zeranol] was tested. Which log did it give?
Answer: -0.183

Question: For `CC(N)Cc1c[nH]c2ccccc12` (stereo not drawn) [Alpha-methyltryptamine], which log is on record?
Answer: 0.0205

Question: Which log does the source give for `O=C1CN=C(c2ccccc2Cl)c2cc(Cl)ccc2N1` [Delorazepam] here?
Answer: 0.084

Question: `NCCc1c[nH]c2ccc(OCc3ccccc3)cc12` [5-Benzyloxytryptamine] was tested. Which log did it give?
Answer: 0.0125

Question: How did the log turn out when `O=[N+]([O-])O[C@H]1CO[C@H]2[C@@H]1OC[C@H]2O` [Isosorbide-2-mononitrate] was run?
Answer: 0.1
